These are yes or no findings as the source states them, for the method shown. Some entries that bind do so weakly or less than the wild type. For some assays here: Sequences can lack the tags named with a protein.
Experiments:
[1] = biological target: human ICOS on activated human T cells (human) (UniProt Q9Y6W8); assay: flow cytometry ex vivo, human PBMC engrafted NSG mice with A549 tumors
[2] = biological target: T1, rabbit Fc-tagged recombinant extracellular human ICOS (human) (UniProt Q9Y6W8); assay: SPR (Biacore), FIG. 15A
T1 sequence: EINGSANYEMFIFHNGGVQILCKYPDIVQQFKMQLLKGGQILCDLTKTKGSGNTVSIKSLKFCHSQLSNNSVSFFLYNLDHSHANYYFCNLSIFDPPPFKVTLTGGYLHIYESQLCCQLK

[3] = biological target: T2, recombinant ICOS protein (R&D Systems) (human) (UniProt Q9Y6W8); assay: MSD competition assay: coated recombinant ICOS, H2L5 titrated, then 1 µg/mL human ICOS ligand (B7-H2) detected with biotinylated anti-ICOS-L
T2 sequence: T1 sequence

[4] = biological target: human ICOS on activated human T cells (human) (UniProt Q9Y6W8); assay: live fluorescence microscopy: labeled H2L5 at 3 µg/mL on anti-CD3 pre-stimulated human T cells co-cultured with dendritic cells
[5] = biological target: human ICOS on activated human T cells (human) (UniProt Q9Y6W8); assay: flow cytometry ex vivo with PE anti-human IgG4 on CD8 T cells of human-PBMC NSG mice bearing A549 tumors, after dosing with H2L5
[6] = biological target: human ICOS on activated human T cells (human) (UniProt Q9Y6W8); assay: flow cytometry of tumor tissue of human PBMC engrafted NSG mice with A549 tumors, 48 hours after the 4th dose; bound antibody detected with PE mouse anti-human IgG4 [D00063 FIG. 27B CONT.]
[7] = biological target: human ICOS on activated human T cells (human) (UniProt Q9Y6W8); assay: flow cytometry ex vivo with PE conjugated mouse anti human IgG4, FIG. 27
[8] = biological target: human ICOS on activated human T cells (human) (UniProt Q9Y6W8); assay: flow cytometry, detected with anti-human IgG kappa light chain FITC
[9] = biological target: human ICOS on activated human T cells (human) (UniProt Q9Y6W8); assay: flow cytometry of whole blood of human PBMC engrafted NSG mice with A549 tumors, 48 hours after the 4th dose; bound antibody detected with PE mouse anti-human IgG4 [D00062 FIG. 27A CONT.]
[10] = biological target: human ICOS on activated human T cells (human) (UniProt Q9Y6W8); assay: flow cytometry, FIG. 15C
[11] = biological target: human ICOS on activated human T cells (human) (UniProt Q9Y6W8); assay: flow cytometry, H2L5 at 20 µg/mL on naive and activated CD4+ and CD8+ T cells of healthy donors

binding [1]: binds
binding [2]: binds
binding [3]: binds
binding [4]: binds
binding [5]: binds
binding [6]: binds
binding [7]: binds
binding [8]: binds
binding [9]: binds
binding [10]: binds
binding [11]: binds
B1: H2L5 IgG4PE (antibody, V domains shown)
VH: QVQLVQSGAEVKKPGSSVKVSCKASGYTFTDYAMHWVRQAPGQGLEWMGLISIYSDHTNYNQKFQGRVTITADKSTSTAYMELSSLRSEDTAVYYCGRNNYGNYGWYFDVWGQGTTVTVSS
VL: EIVLTQSPATLSLSPGERATLSCSASSSVSYMHWYQQKPGQAPRLLIYDTSKLASGIPARFSGSGSGTDYTLTISSLEPEDFAVYYCFQGSGYPYTFGQGTKLEIK
notes: Human IgG4 with Fc mutations S228P and L235E (EU numbering), called IgG4PE; humanized variant of murine clone 422.2; also called ICOS IgG4PE; H2L5 (ICOS) IgG4PE

— patent publication US20200190194A1 (GlaxoSmithKline, published 2020)
